The supplement of paper PMC12819154, “High-throughput peptide-centric local stability assay extends protein–ligand identification to membrane proteins, tissues and bacteria” (Nature Structural & Molecular Biology, 2025)
This is one part of the list. Most entries show no effect beyond the scatter of the controls.

The chains behind the UniProt entries cited, without tags or fusion partners. Where a name states a change or a piece, a line headed by the entry shows the natural chain unless it says otherwise.
UniProt P52888, whole entry: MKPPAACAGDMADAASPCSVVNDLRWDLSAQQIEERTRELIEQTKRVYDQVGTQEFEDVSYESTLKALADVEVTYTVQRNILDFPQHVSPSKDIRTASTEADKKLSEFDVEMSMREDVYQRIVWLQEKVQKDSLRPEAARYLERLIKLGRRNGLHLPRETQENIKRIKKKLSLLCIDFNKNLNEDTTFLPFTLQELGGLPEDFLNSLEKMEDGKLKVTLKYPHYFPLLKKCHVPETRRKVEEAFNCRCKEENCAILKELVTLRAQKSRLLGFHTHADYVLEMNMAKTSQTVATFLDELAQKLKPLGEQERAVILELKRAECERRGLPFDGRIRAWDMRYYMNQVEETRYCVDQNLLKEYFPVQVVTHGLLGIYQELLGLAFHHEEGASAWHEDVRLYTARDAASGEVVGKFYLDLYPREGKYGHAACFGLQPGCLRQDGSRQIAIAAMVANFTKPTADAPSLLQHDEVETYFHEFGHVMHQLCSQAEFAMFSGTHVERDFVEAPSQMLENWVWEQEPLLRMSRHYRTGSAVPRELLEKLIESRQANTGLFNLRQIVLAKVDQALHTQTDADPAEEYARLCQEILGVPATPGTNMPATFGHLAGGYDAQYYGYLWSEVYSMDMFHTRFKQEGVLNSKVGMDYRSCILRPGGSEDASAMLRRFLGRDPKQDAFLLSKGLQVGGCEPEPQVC
UniProt P50549: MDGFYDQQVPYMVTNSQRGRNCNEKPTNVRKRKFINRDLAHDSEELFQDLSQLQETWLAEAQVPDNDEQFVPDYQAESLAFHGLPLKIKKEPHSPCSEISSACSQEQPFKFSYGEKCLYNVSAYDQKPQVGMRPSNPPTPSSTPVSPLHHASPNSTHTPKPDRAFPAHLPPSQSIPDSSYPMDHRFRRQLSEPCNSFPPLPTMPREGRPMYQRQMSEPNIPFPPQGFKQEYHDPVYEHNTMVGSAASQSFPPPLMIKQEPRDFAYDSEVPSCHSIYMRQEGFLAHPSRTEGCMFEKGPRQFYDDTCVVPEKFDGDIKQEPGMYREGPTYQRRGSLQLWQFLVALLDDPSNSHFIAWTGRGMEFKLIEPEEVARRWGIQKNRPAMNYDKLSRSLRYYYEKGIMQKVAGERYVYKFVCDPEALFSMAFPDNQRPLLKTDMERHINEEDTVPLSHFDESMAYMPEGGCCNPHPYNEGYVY
UniProt P54687: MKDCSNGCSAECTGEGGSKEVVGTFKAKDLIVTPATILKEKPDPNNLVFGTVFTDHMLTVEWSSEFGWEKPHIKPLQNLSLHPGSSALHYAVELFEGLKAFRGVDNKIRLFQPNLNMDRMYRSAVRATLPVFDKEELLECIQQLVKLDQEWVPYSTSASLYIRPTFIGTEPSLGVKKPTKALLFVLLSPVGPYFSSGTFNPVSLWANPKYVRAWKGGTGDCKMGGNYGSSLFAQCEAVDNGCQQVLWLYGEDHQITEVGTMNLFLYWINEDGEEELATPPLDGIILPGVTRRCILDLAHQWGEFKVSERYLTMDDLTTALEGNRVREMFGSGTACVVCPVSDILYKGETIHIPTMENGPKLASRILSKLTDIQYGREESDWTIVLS
UniProt P51955: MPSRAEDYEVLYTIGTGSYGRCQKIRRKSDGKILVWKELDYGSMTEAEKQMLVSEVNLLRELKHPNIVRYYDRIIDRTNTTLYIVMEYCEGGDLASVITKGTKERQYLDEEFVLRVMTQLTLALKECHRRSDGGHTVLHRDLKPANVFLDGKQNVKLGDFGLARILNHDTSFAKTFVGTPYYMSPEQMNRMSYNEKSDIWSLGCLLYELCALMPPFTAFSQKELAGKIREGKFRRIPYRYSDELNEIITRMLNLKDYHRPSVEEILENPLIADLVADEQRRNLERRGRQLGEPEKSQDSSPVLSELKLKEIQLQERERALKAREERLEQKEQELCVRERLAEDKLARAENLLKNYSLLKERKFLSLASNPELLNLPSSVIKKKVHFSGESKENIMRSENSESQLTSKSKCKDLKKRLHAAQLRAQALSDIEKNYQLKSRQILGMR
UniProt P48634: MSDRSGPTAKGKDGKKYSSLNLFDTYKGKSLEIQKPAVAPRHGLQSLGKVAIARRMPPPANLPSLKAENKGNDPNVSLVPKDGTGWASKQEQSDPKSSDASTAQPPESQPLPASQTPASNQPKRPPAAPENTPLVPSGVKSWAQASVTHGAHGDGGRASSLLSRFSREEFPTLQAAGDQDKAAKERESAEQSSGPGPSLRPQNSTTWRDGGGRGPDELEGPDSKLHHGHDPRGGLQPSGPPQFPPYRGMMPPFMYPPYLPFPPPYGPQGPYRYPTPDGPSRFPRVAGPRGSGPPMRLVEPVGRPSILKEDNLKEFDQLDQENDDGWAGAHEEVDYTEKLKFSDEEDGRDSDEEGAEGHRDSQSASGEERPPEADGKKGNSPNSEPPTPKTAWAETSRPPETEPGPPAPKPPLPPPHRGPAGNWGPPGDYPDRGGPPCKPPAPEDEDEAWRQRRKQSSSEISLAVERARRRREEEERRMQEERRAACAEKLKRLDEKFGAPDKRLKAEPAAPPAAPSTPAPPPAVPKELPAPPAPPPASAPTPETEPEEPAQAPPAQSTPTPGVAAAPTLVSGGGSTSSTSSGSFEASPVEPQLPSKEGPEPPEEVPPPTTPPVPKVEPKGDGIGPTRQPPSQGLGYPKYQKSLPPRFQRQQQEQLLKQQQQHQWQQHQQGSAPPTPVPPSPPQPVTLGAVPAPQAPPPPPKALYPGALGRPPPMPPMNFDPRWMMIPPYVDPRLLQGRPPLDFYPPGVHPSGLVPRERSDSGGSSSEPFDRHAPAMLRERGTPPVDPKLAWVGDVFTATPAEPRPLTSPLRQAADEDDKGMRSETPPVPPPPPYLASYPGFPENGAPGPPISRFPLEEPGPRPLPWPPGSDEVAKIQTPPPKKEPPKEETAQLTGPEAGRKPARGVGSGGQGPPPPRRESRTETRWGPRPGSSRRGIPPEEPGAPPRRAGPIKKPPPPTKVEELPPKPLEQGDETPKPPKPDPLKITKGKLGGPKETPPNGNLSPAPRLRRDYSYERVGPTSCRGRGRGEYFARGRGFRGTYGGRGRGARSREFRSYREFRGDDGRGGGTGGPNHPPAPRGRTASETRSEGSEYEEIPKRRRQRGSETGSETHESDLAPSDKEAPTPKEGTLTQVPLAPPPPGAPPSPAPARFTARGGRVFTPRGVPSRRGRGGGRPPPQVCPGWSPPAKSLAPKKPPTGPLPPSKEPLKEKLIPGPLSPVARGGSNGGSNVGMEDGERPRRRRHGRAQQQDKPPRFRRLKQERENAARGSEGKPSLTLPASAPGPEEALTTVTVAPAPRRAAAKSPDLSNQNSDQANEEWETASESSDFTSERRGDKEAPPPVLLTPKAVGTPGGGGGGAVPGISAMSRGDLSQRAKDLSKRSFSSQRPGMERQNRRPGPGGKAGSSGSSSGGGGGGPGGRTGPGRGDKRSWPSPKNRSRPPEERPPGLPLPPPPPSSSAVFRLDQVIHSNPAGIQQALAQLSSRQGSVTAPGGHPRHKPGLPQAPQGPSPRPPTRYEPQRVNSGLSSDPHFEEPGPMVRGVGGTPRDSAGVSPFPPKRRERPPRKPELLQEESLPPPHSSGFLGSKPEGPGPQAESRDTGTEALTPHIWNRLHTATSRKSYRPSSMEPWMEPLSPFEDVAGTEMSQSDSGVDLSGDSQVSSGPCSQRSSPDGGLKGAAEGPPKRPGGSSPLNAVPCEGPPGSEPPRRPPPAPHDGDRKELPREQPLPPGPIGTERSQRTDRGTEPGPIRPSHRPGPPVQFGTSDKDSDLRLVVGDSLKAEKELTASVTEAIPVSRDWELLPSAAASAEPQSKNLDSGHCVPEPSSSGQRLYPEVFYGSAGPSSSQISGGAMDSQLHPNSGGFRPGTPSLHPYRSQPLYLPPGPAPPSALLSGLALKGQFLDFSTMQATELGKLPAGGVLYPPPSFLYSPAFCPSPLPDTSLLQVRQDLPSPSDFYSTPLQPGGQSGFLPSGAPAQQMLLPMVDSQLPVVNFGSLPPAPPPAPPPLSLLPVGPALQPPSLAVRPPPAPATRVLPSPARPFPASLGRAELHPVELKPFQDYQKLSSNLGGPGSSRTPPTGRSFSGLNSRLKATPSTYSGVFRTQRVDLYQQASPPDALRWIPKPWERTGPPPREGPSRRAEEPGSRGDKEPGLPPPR
UniProt P47897: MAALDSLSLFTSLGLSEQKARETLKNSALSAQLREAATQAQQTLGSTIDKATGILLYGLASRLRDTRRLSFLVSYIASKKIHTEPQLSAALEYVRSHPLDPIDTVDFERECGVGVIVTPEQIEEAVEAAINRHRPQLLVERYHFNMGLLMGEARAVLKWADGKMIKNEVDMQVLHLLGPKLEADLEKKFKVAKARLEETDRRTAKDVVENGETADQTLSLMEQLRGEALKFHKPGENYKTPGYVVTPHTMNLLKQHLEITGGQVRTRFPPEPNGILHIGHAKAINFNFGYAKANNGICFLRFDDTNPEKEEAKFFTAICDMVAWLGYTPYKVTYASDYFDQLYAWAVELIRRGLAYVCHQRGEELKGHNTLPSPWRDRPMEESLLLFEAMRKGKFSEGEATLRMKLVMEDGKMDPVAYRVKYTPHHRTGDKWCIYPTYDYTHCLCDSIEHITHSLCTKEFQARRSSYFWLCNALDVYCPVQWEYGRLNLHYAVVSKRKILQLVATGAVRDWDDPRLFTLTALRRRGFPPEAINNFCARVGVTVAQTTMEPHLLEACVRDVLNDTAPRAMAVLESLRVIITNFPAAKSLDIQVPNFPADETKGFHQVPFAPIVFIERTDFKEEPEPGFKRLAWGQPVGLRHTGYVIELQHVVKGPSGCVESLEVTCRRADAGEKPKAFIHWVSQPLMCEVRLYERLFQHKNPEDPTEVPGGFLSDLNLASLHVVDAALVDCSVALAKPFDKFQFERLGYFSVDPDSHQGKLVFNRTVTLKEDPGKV
UniProt P51151: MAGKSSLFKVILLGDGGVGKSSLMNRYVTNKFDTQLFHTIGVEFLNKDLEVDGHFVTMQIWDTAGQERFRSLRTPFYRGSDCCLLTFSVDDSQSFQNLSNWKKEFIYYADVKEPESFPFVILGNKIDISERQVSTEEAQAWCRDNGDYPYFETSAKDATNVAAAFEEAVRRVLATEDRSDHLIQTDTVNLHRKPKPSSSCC
UniProt P48454, whole entry: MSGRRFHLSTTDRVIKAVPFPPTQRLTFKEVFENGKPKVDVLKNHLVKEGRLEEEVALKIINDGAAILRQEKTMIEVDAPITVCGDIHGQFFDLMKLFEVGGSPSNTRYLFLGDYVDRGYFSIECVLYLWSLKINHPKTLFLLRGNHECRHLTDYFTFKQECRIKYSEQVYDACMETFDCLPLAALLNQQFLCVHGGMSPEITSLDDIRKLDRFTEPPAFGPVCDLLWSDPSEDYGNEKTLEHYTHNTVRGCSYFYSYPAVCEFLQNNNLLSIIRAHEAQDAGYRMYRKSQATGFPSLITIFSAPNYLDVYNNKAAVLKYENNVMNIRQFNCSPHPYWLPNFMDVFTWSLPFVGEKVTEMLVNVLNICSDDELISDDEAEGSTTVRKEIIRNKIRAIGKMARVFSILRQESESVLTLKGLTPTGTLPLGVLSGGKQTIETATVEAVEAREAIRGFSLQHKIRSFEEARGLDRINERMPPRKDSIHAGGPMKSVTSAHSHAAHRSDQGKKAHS

Compound: Cc1nc(Nc2ncc(C(=O)Nc3c(C)cccc3Cl)s2)cc(N2CCN(CCO)CC2)n1 [dasatinib]
Assay: log2 fold change of tryptic peptide abundance, ligand vs vehicle (limited proteolysis) (log2 ratio); higher = more trypsin-susceptible (destabilized)
Settings: ligand concentration: 5 uM; sample: K562 cleared lysate

Row | Target | log2 fold change
1 | THOP1 (peptide sequence: QDAFLLSK, peptide start residue: 668) (UniProt P52888) | 0.225
2 | POLG (peptide sequence: LTQQEAAEK, peptide start residue: 973) (UniProt P54098) | 0.435
3 | ETV1 (peptide sequence: TEGCMFEKGPR, peptide start residue: 289) (UniProt P50549) | -0.0724
4 | BCAT1 (peptide sequence: CILDLAHQWGEFK, peptide start residue: 293) (UniProt P54687) | -0.155
5 | UniProt P51955 (peptide sequence: ILNHDTSFAK, peptide start residue: 165) | -0.319
6 | UniProt P48634 (peptide sequence: GIPPEEPGAPPR, peptide start residue: 936) | -0.274
7 | RPL27A (peptide sequence: TGAAPIIDVVR, peptide start residue: 95) (UniProt P46776) | -0.0527
8 | QARS (peptide sequence: LGYFSVDPDSHQGK, peptide start residue: 746) (UniProt P47897) | -0.217
9 | RAB9A (peptide sequence: SDHLIQTDTVNLHR, peptide start residue: 179) (UniProt P51151) | -0.25
10 | PPP3CC (peptide sequence: KDSIHAGGPMK, peptide start residue: 481) (UniProt P48454) | 0.309
